This passage reports binding results from patent US20060073149A1.

Chains of the proteins cited; added tags and fusions are not shown. Residues count along the entry.
UniProt P05067, residues 672-711: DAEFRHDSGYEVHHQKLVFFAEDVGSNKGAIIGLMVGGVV

The target in this test is soluble Aβ (UniProt P05067). In words: worded comparison of affinities; method not given.

No constants are given. Whether binding was seen depends on the method and setting. Some binding calls cover weakened binding; strength is not graded here.

B1: humanized 266 antibody (antibody, human IgG1, kappa, V domains shown)
VH: EVQLVESGGGLVQPGGSLRLSCAASGFTFSRYSMSWVRQAPGKGLELVAQINSVGNSTYYPDTVKGRFTISRDNAKNTLYLQMNSLRAEDTAVYYCASGDYWGQGTLVTVSS
VL: DVVMTQSPLSLPVTLGQPASISCRSSQSLIYSDGNAYLHWFLQKPGQSPRLLIYKVSNRFSGVPDRFSGSGSGTDFTLKISRVEAEDVGVYYCSQSTHVPWTFGQGTKVEIKR
Consider B1, for which the binding entry is on record as “binds”.
